Laboratory results from US20160216264A1 (WASHINGTON UNIVERSITY, published 2016).
These are yes or no findings as the source states them, for the method shown. Some results given as binding are weak or reduced against the parent protein; the word gives no strength. Values belong to the binder of their own block, whether it stands above or below them.

Columns and labels:
[1] = target: T1, peptide 2 (synthetic peptide corresponding to the epitope for mAb 12H06) (human); assay: peptide preincubation (100 µg/ml), inhibition of immunoblot staining
T1 sequence (peptide): RPYYQGLIDKYC

[2] = target: T2, peptide 1 (synthetic peptide corresponding to the epitope for mAb 01D10) (human); assay: as above
T2 sequence (peptide): PSLVYRPDVDPEV

binding [1]: binds
B1: mouse monoclonal anti-MIOX antibody 12H06 (antibody, IgG2b, V domains shown)
VH: QVQLQQPGAELVRPGTSVKLSCKASGYTFTSYWMHWVKQRPGQGLEWIGLIDPSDSYTNYNQKFKGKATLTVDTSSSTASMQLSSLTSEDSAVYYCVRTYYHSSYFFAYWGQGTLVTVSS
VL: DIVVTQSPASFAVSLGQRATISCRASKSVSTSGYSYINWYQQKPGQPPKLLIYLASNLESGVPARFSGSGSGTDFTLNIHPVEEEDAATYYCQHSRELPLTFGAGTRLELK
notes: the VH entry runs a few residues into CH1; also called mAb 12H06

binding [2]: binds
B2: mouse monoclonal anti-MIOX antibody 01D10 (antibody, IgG2b, V domains shown)
VH: QVQLQQSGPELVKPGASVKISCKASGYSFTSYYIHWVKQRPGQGLEWIGWIYPGSGNSKYNEKFKGKATLTADTSSSTAYMQLSSLTSEDSAVYYCARDGSTYNWNFDVWGTGTTVTVSS
VL: DIQMTQSPASLSASVGETVTITCRTSGNIHNYLAWYQQKQGKSPQLLVYNAKTLADGVPSRFSGSGSGTQYSLKINSLQPEDFGSYYCQHFWSIPFTFGSGTKLEIKR
notes: they run a few residues into the constant regions; Biotinylated when used as capping antibody in the sandwich immunoassay; also called mAb 01D10
